The record followed here is PubChem BioAssay AID2685 (National Center for Advancing Translational Sciences (NCATS), 2010).

This assay is described as follows: qHTS Assay for Lipid Storage Modulators in Drosophila S3 Cells.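 For cell number change: cells counted by Cell Tracker Red CMTPX staining in the red channel.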 As to conditions: BODIPY lipid droplet fluorescence, 18-24 h; for cell number change: measured here: cell count max response, cells fed with added oleic acid. Summed up:
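Laser-scanning cytometry quantifies lipid droplet accumulation (500–530 nm total intensity; droplet/cell object ratio) in oleic acid-fed (400 uM added) Drosophila S3 cells treated with a concentration series. 20 uM Triacsin C defined 100% inhibition.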
(In general: In qHTS, concentration-response curves come from the screen itself.)

Where [1] appears, read: measured here: cell number channel AC50, cells fed with added oleic acid.
Setting [2] is: measured here: lipid fluorescence (Fed channel) AC50, cells fed with added oleic acid.

One may read the AC50 as the concentration at which the activity in the assay is half-maximal.

The other results are listed elsewhere or left out. Shown are side measurements of this screen, not its main read-out; they come without a call. The list favours compounds with an active or inconclusive main result. The note in brackets gives the kind of curve behind each potency; many fits are weak.

With `CN1C(=O)[C@H]2[C@@H](C3CC3)N3C(=O)CN(CC4CC4)C(=O)[C@@]3(C)[C@H]2C1=O`, the cell number change came out at 31.4%. Further, the AC50 under setting [1] is 14.6 µM [rising, partial curve, poor fit]. The AC50 under setting [2] was 2.31 µM [falling, partial curve, poor fit].
Take `Cc1cccc(N2CCN(CCNC(=O)c3cc4c(s3)CS(=O)(=O)C4)CC2)c1C`: the cell number change came out at 50.6%. For the same compound, under setting [1], the AC50 was 14.6 µM [rising, single point].
`COCCn1c(=O)[nH]c(=O)c2c1nc(-c1ccc(-c3ccc(Cl)cc3[N+](=O)[O-])o1)n2Cc1ccccc1`: the cell number change was -11.9%. Besides, the AC50 under setting [2] is 2.06 µM [rising, partial curve].
`CN=C(Nc1cc(C)nn1CCC#N)c1ccc(F)cc1`: the cell number change was -13.4%. For the same compound, the AC50 under setting [2] was 0.651 µM [rising, single point].
`COC(=O)c1ccc(CN(C(C)=O)c2ccccc2)o1`: the cell number change is -16.5%.
Regarding `Fc1ccc(Sc2nc(-c3ccccc3)nnc2C(F)(F)F)cc1`, the cell number change is -20.8%. The AC50 under setting [2] is 16.4 µM [falling, single point].
On to `CCCCOc1ccc(C(=O)NCC(=O)N(C)CC(=O)Nc2ccc(N3CCOCC3)cc2)cc1`, for which the cell number change is -50%. Moreover, the AC50 under setting [1] was 0.82 µM [falling, full curve, poor fit]. Also, the AC50 under setting [2] was 0.58 µM [falling, single point].
As for `COc1ccccc1CNC(=O)C(C)c1ccc([N+](=O)[O-])cc1` (centres undefined), the cell number change is -35.3%.
Take `O=C(OCc1c(-c2ccccc2)ncc2ccccc12)c1ccc(Br)cc1`: the AC50 under setting [2] was 29.1 µM [falling, single point].
As to `Cc1cc(C(=O)COc2cccnc2[N+](=O)[O-])c(C)n1-c1ccccc1`, under setting [2], the AC50 was 29.1 µM [rising, single point].
Still for that read-out and setting: the figure for `COC(=O)CCN(C)CCC(=O)OC` is 29.1 µM [falling, single point].
As to `CCOC(=O)c1ccc(NC(=S)N(CCCN2CCCCCC2)Cc2ccco2)cc1`, the cell number change turned out to be 24.6%. The AC50 under setting [2] is 14.6 µM [rising, single point].
In the case of `CS(=O)(=O)c1ccc2nc(NC(=O)c3cc(-c4ccccc4)nn3-c3ccccc3)sc2c1`, the cell number change is 2.01%. For the same compound, the AC50 under setting [1] was 2.06 µM [rising, single point].
As for `COc1ccc(C(=O)Nc2cccc(-c3nc4ncccc4o3)c2C)cc1`, the cell number change was 25.5%. Further, under setting [1], the concentration at half-maximal activity (AC50) is 0.116 µM [rising, full curve]. The AC50 under setting [2] was 0.461 µM [rising, full curve, poor fit].
Turning to `O=C(Nc1ccccc1)N1N=C(c2cccs2)CC1c1cccs1` (centres undefined), the cell number change is -36.6%. Besides, under setting [1], the AC50 is 29.1 µM [falling, single point].
`CCNc1nc(Oc2c(Cl)cccc2Cl)cc(C(F)(F)F)n1`: the cell number change is -2.3%. Also, the AC50 under setting [2] is 20.6 µM [falling, single point].
With `Cc1cc2cc(C(=O)N3CCc4c([nH]c5ccccc45)C3c3ccccn3)ccc2o1` (centres undefined), the cell number change was determined as 19.5%. In addition, the AC50 under setting [2] was 6.51 µM [rising, single point].
In the case of `O=C(COC(=O)CCN1C(=O)c2cccc([N+](=O)[O-])c2C1=O)NC1CCS(=O)(=O)C1` (centres undefined), the cell number change came to 58.6%.
On the same count and under the same terms, the figure for `O=C(NCc1ccccc1Cl)c1cc(=O)[nH]c2ccccc12` is 34.6%.
Turning to `CCN1CCN(C(=O)C2CCN(C(=O)Nc3ccccc3)CC2)CC1`, the cell number change is -8.29%. Further, the AC50 under setting [2] is 0.731 µM [rising, single point].
Turning to `O=C(N/N=C/c1ccc2c(c1)OCO2)c1ccc2c(c1)OCO2`, the half-maximal activity concentration (AC50) under setting [2] is 7.08 µM [falling, full curve, poor fit].
Turning to `CCOC(=O)c1cccc(NC(=O)c2ccc(NC(=O)c3ccco3)cc2)c1`, the cell number change came out at 8.65%.
Take `CCOC(=O)c1cncc(NC(=O)c2ccccc2)c1`: the cell number change turned out to be 12.3%. Moreover, the AC50 under setting [2] was 14.6 µM [rising, partial curve].
For `COc1ccc(NC(=O)N/C=C/c2ccc(Cl)cc2)cc1`, the cell number change is -7.36%. The AC50 under setting [2] is 0.651 µM [rising, single point].
Take `CCCCn1c(N)c(N(Cc2ccccc2OC)C(=O)c2ccc([N+](=O)[O-])s2)c(=O)[nH]c1=O`: the cell number change was determined as 36.6%. Under setting [1], the concentration at half-maximal activity (AC50) is 6.51 µM [rising, partial curve]. For the same compound, the half-maximal activity concentration (AC50) under setting [2] was 8.2 µM [rising, partial curve, poor fit].
As to `CC(C(=O)N/N=C/c1ccc(N(C)C)c(Br)c1)N(c1ccccc1)S(C)(=O)=O` (centres undefined), the concentration at half-maximal activity (AC50) is 0.00517 µM [falling, full curve, poor fit] under setting [1] and 6.51 µM [falling, partial curve, poor fit] under setting [2].
On to `O=C(Nc1ccccc1)c1ccccc1OCc1ccc(F)cc1`, for which the cell number change came to 22.3%. Besides, the AC50 under setting [2] is 16.4 µM [rising, single point].
As to `O=C(NC1CC(=O)N(c2ccccc2)C1)N1CCN(C(=O)c2ccco2)CC1` (centres undefined), the cell number change is -28.1%. Besides, under setting [2], the AC50 was 13 µM [falling, partial curve].
For the compound `CC(=O)c1cccc(NC(=O)C2CCCN(S(C)(=O)=O)C2)c1` (centres undefined), the cell number change was -23.3%. The AC50 under setting [1] was 2.91 µM [falling, full curve, poor fit]. Besides, the AC50 under setting [2] was 3.66 µM [falling, full curve].
As to `Cc1ccc(Nc2nc3ccccc3s2)cc1`, the cell number change was -40.5%. Moreover, under setting [1], the concentration at half-maximal activity (AC50) was 7.31 µM [falling, partial curve]. Further, the concentration at half-maximal activity (AC50) under setting [2] was 29.1 µM [falling, single point].
Consider `CCCCn1c(N)c(N(CCOC)C(=O)CSc2n[nH]c(-c3ccc(C)cc3)n2)c(=O)[nH]c1=O`, for which the cell number change is 25%. Further, the AC50 under setting [1] was 6.51 µM [rising, partial curve, poor fit].
On to `CC(C)C(=O)Nc1cccc(C(=O)N2CCCCC2C)c1` (centres undefined), for which the cell number change is 19.9%.
On the same count and under the same terms, the figure for `CCOC(=O)N1CCN(Cc2nc3cc(NC(=O)CC)ccc3n2C)CC1` is 18.2%; for `CCc1ccc(S(=O)(=O)Nc2cccc(-c3ccc4nnc(C)n4n3)c2)s1` it is -19%.
In the case of `CC(C)OC(=O)CSc1nc2cccnc2n1C1CCCCC1`, the cell number change was -6.72%. The AC50 under setting [2] is 0.092 µM [rising, full curve, poor fit].
With `COc1cc(/C=C/C(=O)O)cc(S(=O)(=O)Nc2cc(Cl)c(Cl)cc2Cl)c1OC`, the cell number change turned out to be 11.5%.
Turning to `Nc1nc(N)c(N=Nc2ccc(SCC(=O)O)cc2)c(=O)[nH]1`, the cell number change is -53%. Also, the AC50 under setting [1] is 29.1 µM [falling, single point]. Besides, the AC50 under setting [2] was 29.1 µM [falling, single point].
Take `CCCCN(C(=O)NC(=O)Nc1cc(C)ccc1C)S(C)(=O)=O`: the cell number change is -15.7%.
As for `NNC(=O)c1cc(-c2ccccc2)sc1N`, the cell number change was 16.4%. In addition, the concentration at half-maximal activity (AC50) under setting [2] was 2.06 µM [rising, full curve, poor fit].
`Fc1ccc(Nc2nc(N3CCOCC3)nc(N3CCOCC3)n2)cc1`: the cell number change was -14.2%. Further, the AC50 under setting [2] was 18.4 µM [rising, single point].
In the case of `NS(=O)(=O)c1ccc(NC(=O)c2ccccc2Cl)cc1`, the cell number change was -34.4%. Further, the AC50 under setting [1] is 4.61 µM [falling, full curve, poor fit]. For the same compound, the concentration at half-maximal activity (AC50) under setting [2] was 18.4 µM [falling, single point].
Consider `O=C(C(Cc1ccccc1)NS(=O)(=O)c1cccc2cccnc12)N1CCc2ccccc21` (centres undefined), for which the cell number change is 7.13%.
On to `COC(=O)c1ccc(NC(=O)CSC2=Nc3ccccc3C3CC=NN23)cc1` (centres undefined), for which the cell number change amounted to 1.61%. In addition, the half-maximal activity concentration (AC50) under setting [1] is 0.461 µM [rising, partial curve, poor fit]. Besides, under setting [2], the AC50 is 3.26 µM [rising, partial curve].
On to `CCN(CC)CCCNC(=O)C1CCN(C(=O)c2oc3cc4sc(N(C)C)nc4cc3c2C)CC1`, for which the cell number change came to 5.61%. Besides, the AC50 under setting [2] was 3.66 µM [rising, partial curve].
Turning to `COc1ccc(NC(=O)c2cnc(C)cn2)cc1-n1cnnn1`, the cell number change worked out at 2.7%. Moreover, the concentration at half-maximal activity (AC50) under setting [2] is 4.11 µM [rising, full curve].
Turning to `O=C(COC(=O)c1ccc(Cl)nc1)Nc1ccccc1OC(F)F`, the cell number change is 83.3%. Moreover, the AC50 under setting [1] is 29.1 µM [rising, partial curve, poor fit]. Under setting [2], the AC50 is 0.206 µM [falling, single point].
Regarding `COc1ccc(CSc2ccc(S(=O)(=O)N3CCCCC3)cn2)cc1F`, the cell number change is -8.9%. For the same compound, under setting [2], the AC50 is 0.0517 µM [rising, full curve].
Take `COc1ccc2[nH]cc(S(=O)(=O)c3ccc(F)cc3)c(=O)c2c1`: the cell number change is -29.3%. Besides, the AC50 under setting [2] was 13 µM [falling, partial curve].
For `C[N+](C)(C)CCOC(N)=O`, the cell number change was -33.1%. The AC50 under setting [1] is 1.46 µM [falling, full curve]. Further, the AC50 under setting [2] is 1.46 µM [falling, full curve].
On to `CCOc1ccccc1N(C)S(=O)(=O)c1ccc2c(c1)CC(C)N2C(=O)C1CC1` (centres undefined), for which the cell number change was -33.4%. Also, under setting [1], the AC50 was 7.31 µM [falling, partial curve]. Moreover, the AC50 under setting [2] is 6.51 µM [falling, single point].
Turning to `COc1ccc(C(=O)CSc2nnc(-c3ccccc3)o2)cc1`, the cell number change is -0.68%.
Same read-out and setting: as for `C/C(=C\C(=O)c1sccc1Cl)N(C)C`, the figure is -13.5%.
As for `CN(C(=O)c1cccc(C(F)(F)F)c1)C1CCCc2ccccc21` (centres undefined), the cell number change was determined as 13.5%. For the same compound, the AC50 under setting [2] was 6.51 µM [rising, single point].
`Cc1ccc(Cl)cc1N1CCN(Cc2nnnn2Cc2ccco2)CC1`: the cell number change turned out to be 5.28%. For the same compound, the AC50 under setting [2] is 0.116 µM [falling, full curve, poor fit].
Regarding `CS(=O)(=O)Nc1cccc(-c2cn3ccccc3n2)c1`, the cell number change was found to be 29.1%. Moreover, under setting [1], the AC50 was 0.291 µM [rising, full curve, poor fit]. Moreover, under setting [2], the AC50 was 25.9 µM [rising, partial curve, poor fit].
Regarding `O=[N+]([O-])c1ccc(CCNc2cccc3ccccc23)c([N+](=O)[O-])c1`, the cell number change was -32%. The AC50 under setting [1] was 9.2 µM [falling, single point].
Take `Cc1ccc(NC(=O)CSc2nc3ncc(Cl)cc3[nH]2)c(C)c1`: the cell number change was 20.8%.
As for `CC(=O)c1cccc(NC(=O)C2CC(=O)N(c3ccc4c(c3)OCCO4)C2)c1` (centres undefined), the AC50 under setting [2] is 0.206 µM [falling, full curve].
Consider `CCc1cccc(CC)c1NC(=O)C[n+]1cccc(C(N)=O)c1`, for which the cell number change was -4.87%. Besides, the AC50 under setting [1] is 0.0103 µM [falling, full curve, poor fit]. Also, the AC50 under setting [2] was 0.00461 µM [falling, full curve, poor fit].
Turning to `CCOC(=O)CSc1nnnn1-c1cc(OC)ccc1OC`, the cell number change is -0.0844%.
